{"source": "PubChem BioAssay AID504467", "about": "(National Center for Advancing Translational Sciences (NCATS), 2011)", "note": "Out of some 330,000 compounds screened, about 7,700 (2.3%) were called active. Inconclusive results, whose numbers are uncertain, are shown with a selection of clear calls. Calls come from the whole dose curve; as a rule, active = well fitted inhibition curve with a large enough effect; inconclusive = small, poorly fitted or top-dose-only effect, or effect the other way; inactive = flat fitted curve, though single readings scatter. Potencies of inconclusive entries are doubtful fits and often do not repeat. Potency is the fitted concentration of half-maximal effect.", "data": [{"assay": "qHTS screen for small molecules that inhibit ELG1-dependent DNA repair in human embryonic kidney (HEK293T) cells expressing luciferase-tagged ELG1; note: nearly all actives have a fitted effect of over 55% in size", "conditions": "HEK293T ELG1-luciferase reporter, luminescence, 16 h, DNA damage induced by 5-fluorouridine; series mostly up to 46.1 µM", "summary_of_the_method": "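DMSO vehicle served as the neutral condition. Each well held 2,000 cells given 5-fluorouridine plus compound; after 16 hr at 37 °C/5% CO2, ONE-Glo was added and luciferase measured 30 min later.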", "values": [{"smiles": "Cc1cscn1", "Potency": "inconclusive: 32.6 µM [activator, partial curve, poor fit]"}, {"smiles": "O=c1c2ccccc2nc(/C=C/c2ccc(O)cc2)n1-c1cccc(O)c1", "Potency": "inconclusive: 18.3 µM [inhibitor, partial curve]"}, {"smiles": "COc1ccc(-n2c(SCCN(C)C)nc3ccccc3c2=O)cc1", "Potency": "inconclusive: 29.1 µM [activator, single point]"}, {"smiles": "CC(=O)c1ccc(-c2ccccc2)cc1", "Potency": "inconclusive: 16.4 µM [activator, partial curve]"}, {"smiles": "CCc1ccccc1NC(=O)CN1CCN(C(=O)COc2ccccc2C#N)CC1", "Potency": "inconclusive: 20.6 µM [inhibitor, single point]"}, {"smiles": "CCN(CC)C(=O)Cn1cc(/C=C2\\C(=O)NC(=O)N(c3ccccc3F)C2=O)c2ccccc21", "Potency": "inconclusive: 18.3 µM [activator, single point]"}, {"smiles": "CCN(CC)S(=O)(=O)c1cccc(N=Nc2c(O)n(CC)c(=S)n(CC)c2=O)c1", "Potency": "inconclusive: 29.1 µM [inhibitor, single point]"}, {"smiles": "CCCCn1c(O)c(C=NCc2ccc3c(c2)OCO3)c(=O)[nH]c1=O", "Potency": "inconclusive: 5.8 µM [inhibitor, single point]"}, {"smiles": "CCn1nc(-c2cccs2)nc2c(=O)n(C)c(=O)nc1-2", "Potency": "inconclusive: 29.1 µM [inhibitor, single point]"}, {"smiles": "c1ccc2c(CNC3CCCCC3)c[nH]c2c1", "Potency": "inconclusive: 25.9 µM [inhibitor, partial curve, poor fit]"}, {"smiles": "CCOc1ccc(NC(=O)N2C[C@H]3C[C@@H](C2)c2cccc(=O)n2C3)cc1", "Potency": "inconclusive: 0.0411 µM [activator, partial curve, poor fit]"}, {"smiles": "CN(C)C(=O)Oc1ccc(OC(=O)c2ccccc2)cc1", "Potency": "inconclusive: 23.1 µM [activator, single point]"}, {"smiles": "CCCC(=O)OCC[N+](C)(C)C", "Potency": "inactive"}, {"smiles": "CCOC(=O)C1(CCOc2ccccc2)CCN(Cc2ccccc2OC)CC1", "Potency": "inconclusive: 14.6 µM [inhibitor, partial curve]"}, {"smiles": "COc1ccc(-n2nc(C(=O)NCC(=O)N3CCC4(CC3)OCCO4)c3ccccc3c2=O)cc1", "Potency": "inconclusive: 9.2 µM [activator, partial curve]"}, {"smiles": "Cc1nc2ccc(NC(=O)C3COc4ccccc4O3)cc2s1", "note": "(configuration not stated)", "Potency": "inconclusive: 20.6 µM [activator, partial curve]"}, {"smiles": "O=C(CF)NC(NC(=S)Nc1cccc([N+](=O)[O-])c1)C(Cl)(Cl)Cl", "note": "(configuration not stated)", "Potency": "inactive"}, {"smiles": "COc1cccc(C(=O)C2CCCN(Cc3cccc(C)n3)C2)c1", "note": "(configuration not stated)", "Potency": "inactive"}, {"smiles": "C=CCn1c(O)c(C(C)=Nc2ccc(N(CC)CC)cc2)c(=O)[nH]c1=O", "Potency": "inconclusive: 2.91 µM [inhibitor, full curve]"}, {"smiles": "COC(=O)C1=C(c2ccc(F)cc2OCc2ccccc2)C[C@@H]2CC[C@H]1N2C(=O)NCC1CC1", "Potency": "inactive"}, {"smiles": "Cc1ccccc1C1=NCC(=S)Nc2ccc(Cl)cc21", "Potency": "inactive"}, {"smiles": "CSc1cc(-c2ccccc2)n(Cc2c(Cl)cccc2Cl)c(=O)c1C#N", "Potency": "inconclusive: 3.66 µM [inhibitor, partial curve, poor fit]"}, {"smiles": "Cc1cc(C(=O)OCC(=O)NC(=O)c2cccn2C)c2ccccc2n1", "Potency": "inconclusive: 6.51 µM [inhibitor, single point]"}, {"smiles": "CN1CCc2cc3c(c4c2C1Cc1ccccc1-4)OCO3", "note": "(configuration not stated)", "Potency": "inconclusive: 11.2 µM [inhibitor, partial curve, poor fit]"}, {"smiles": "Cc1ccc(C)c(-c2nnc(NC(=O)C3=COCCO3)o2)c1", "Potency": "inconclusive: 25.9 µM [activator, single point]"}, {"smiles": "CN1CCN(c2nc3ccccc3o2)CC1", "Potency": "inconclusive: 20.6 µM [activator, partial curve]"}, {"smiles": "Cc1ccc(CN2CCCC(C(=O)c3ccc4c(c3)OCO4)C2)cc1C", "note": "(configuration not stated)", "Potency": "inconclusive: 2.91 µM [activator, single point]"}, {"smiles": "Cc1cc(=O)oc2c(C)c(OCC(=O)N3CCN(Cc4ccc5c(c4)OCO5)CC3)ccc12", "Potency": "inconclusive: 29.1 µM [inhibitor, single point]"}, {"smiles": "COc1cc(OC)cc(-n2nc(C(=O)N3CCC4(CC3)OCCO4)c3ccccc3c2=O)c1", "Potency": "inconclusive: 5.17 µM [inhibitor, partial curve, poor fit]"}, {"smiles": "COC(=O)C1=C(c2ccc(Cl)c(C(F)(F)F)c2)C[C@@H]2CC[C@H]1N2C(=O)NC1CCCCC1", "Potency": "inconclusive: 14.6 µM [inhibitor, partial curve, poor fit]"}, {"smiles": "COC(=O)c1ccc(CN2CCN(Cc3ccccc3)CC2)cc1", "Potency": "inconclusive: 23.1 µM [inhibitor, partial curve, poor fit]"}, {"smiles": "Cc1ccc(N2C(=O)NC(=O)C3(Cc4ccccc4N4CCN(c5ccccc5)CC43)C2=O)cc1", "note": "(configuration not stated)", "Potency": "inconclusive: 13 µM [activator, partial curve]"}, {"smiles": "CN1C(=O)N(C)C(=O)C2(Cc3c(ccc4ccccc34)N(C)C2)C1=O", "Potency": "inactive"}, {"smiles": "CCOP(=O)(OCC)C(NC(=O)CC(C)C)C(Cl)(Cl)Cl", "note": "(configuration not stated)", "Potency": "inactive"}, {"smiles": "Brc1ccccc1OCCCN1CCOCC1", "Potency": "inconclusive: 18.4 µM [activator, partial curve]"}, {"smiles": "CC(N)Cc1c[nH]c2c1ccc1ccccc12", "note": "(configuration not stated)", "Potency": "inconclusive: 0.1 µM [activator, full curve, poor fit]"}, {"smiles": "CCCCn1c(O)c(C(C)=NCCc2ccccc2)c(=O)[nH]c1=O", "Potency": "inconclusive: 16.4 µM [inhibitor, partial curve, poor fit]"}, {"smiles": "CP(=O)(O)CN1CCCCC1", "Potency": "inactive"}, {"smiles": "CCOC(=O)N1CCN(C(=O)c2ccc3c(=O)n(CCC4=CCCCC4)c(=S)[nH]c3c2)CC1", "Potency": "inconclusive: 23.1 µM [inhibitor, partial curve]"}, {"smiles": "Nc1cc(C(=O)Nc2ccc(Cl)cc2)ccc1N1CC2CC(C1)c1cccc(=O)n1C2", "note": "(configuration not stated)", "Potency": "inconclusive: 16.4 µM [inhibitor, partial curve, poor fit]"}, {"smiles": "CCCCCCOc1ccc(CN2CCN(C)CC2)cc1", "Potency": "inconclusive: 5.17 µM [activator, partial curve]"}, {"smiles": "COc1ccc(NP(=O)(Oc2cccc(C)c2)Oc2cccc(C)c2)cc1OC", "Potency": "inconclusive: 16.4 µM [inhibitor, single point]"}]}]}
